From patent publication US20100311820
Negatives hold for the conditions tested. Tags and fusion partners may be left off the protein sequences shown. For part of these data: A weaker result is weaker than the reference pair of the same experiment. For at least one entry, the source does not settle the construct or the ends of the probe. For part of these data: At least one result comes from cells or an extract, where the contact may be indirect.

How the values were obtained:
[1] = target: T1, Glycoprotein VI on platelets (Homo sapiens) (UniProt Q9HCN6); assay: activity in cells; conditions: protein on the cell surface; for functional effect of the aptamer: dose not given here
T1 sequence (limits assumed): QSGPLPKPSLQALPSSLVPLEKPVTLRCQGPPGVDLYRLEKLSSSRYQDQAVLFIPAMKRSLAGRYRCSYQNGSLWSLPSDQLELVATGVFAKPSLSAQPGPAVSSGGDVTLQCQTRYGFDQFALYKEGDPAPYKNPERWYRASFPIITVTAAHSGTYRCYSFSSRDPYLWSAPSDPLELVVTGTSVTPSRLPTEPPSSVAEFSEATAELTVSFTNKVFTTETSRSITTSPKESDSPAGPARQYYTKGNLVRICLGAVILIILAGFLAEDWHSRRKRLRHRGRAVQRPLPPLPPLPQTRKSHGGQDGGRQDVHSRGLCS

[2] = target: T2, Glycoprotein VI extracellular domain (Gln21-Lys267) (Homo sapiens) (UniProt Q9HCN6); assay: filter binding; conditions: purified recombinant protein, protein details: C-terminal His6, R&D Systems 3627-GP, label: 5'-32P
T2 sequence: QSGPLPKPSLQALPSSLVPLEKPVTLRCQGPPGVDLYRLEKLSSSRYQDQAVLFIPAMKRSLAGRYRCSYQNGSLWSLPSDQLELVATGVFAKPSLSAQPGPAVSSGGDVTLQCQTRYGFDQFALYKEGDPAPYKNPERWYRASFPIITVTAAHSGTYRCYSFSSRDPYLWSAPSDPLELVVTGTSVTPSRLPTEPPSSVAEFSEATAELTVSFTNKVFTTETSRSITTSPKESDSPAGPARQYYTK

[3] = 2'-F C and U, 2'-OH A and G, hexaethylene glycol spacer in place of Loop 2, 3' idT, no binding, variant of RB466
[4] = 2'-F C and U, 2'-OH A and G, binding not detected, variant of EF-3 T2 (RB430)
[5] = 2'-F C and U, 2'-OH purines, no effect on collagen-induced aggregation, washed platelets, variant of EF-3 T2 (RB430)
[6] = 2'-F C and U, 2'-OH purines, blocked collagen-induced aggregation, washed platelets
[7] = 2'-F C and U, 2'-OH A and G, binding not detected, variant of EF-2 T2 (RB428)
[8] = 2'-F C and U, 2'-OH purines, no effect on collagen-induced aggregation, washed platelets, variant of EF-2 T2 (RB428)

Question: How did the IC50 ([1]; 2'-OH G1, 2'-deoxy A6,G8,G9, 2'-F C7,C14,C15,U16,C19,U21, all others 2'-OMe, hexaethylene glycol spacer between G11 and C12, 3' idT, collagen-induced washed platelet aggregation, variant of RB538) turn out when GGAGGACGGCGCGCCUGGCAUAAGCCUCC [RB540] was run?
Answer: The IC50 was 44 nM.

Question: GGAGGACGGCGCGCCUGGCAUAAGCCUCC [RB549] was tested. Which IC50 ([1]; RB540 with PS G8-G9, collagen-induced washed platelet aggregation, CRP-XL IC50 98 nM, variant of RB540) did it give?
Answer: The IC50 was 25 nM.

Question: What about the IC50 ([1]; rGmGmAmGmGAfCG(s)GmCmG(6GLY)mCmGfCfCfUmGmGfCmAfUmAmAmGmCmCmUmCmCiT, CRP-XL-induced aggregation, washed platelets) of the same sequence?
Answer: Its IC50 is 98 nM.

Question: How did the IC50 ([1]; RB540 with PS G8-G9 and G9-C10, collagen-induced washed platelet aggregation, CRP-XL IC50 38 nM, variant of RB540) turn out when GGAGGACGGCGCGCCUGGCAUAAGCCUCC [RB566] was run?
Answer: Its IC50 is 20 nM.

Question: What about the IC50 ([1]; rGmGmAmGmGAfCG(s)G(s)mCmG(6GLY)mCmGfCfCfUmGmGfCmAfUmAmAmGmCmCmUmCmCiT, CRP-XL-induced aggregation, washed platelets) of the same sequence?
Answer: The IC50 was 38 nM.

Question: What about the “functional effect of the aptamer” value ([1]; rGmGmAmGmGAfCG(s)G(s)mCmG(6GLY)mCmGfCfCfUmGmGfCmAfUmAmAmGmCmCmUmCmCiT, greatly reduced platelet adhesion and aggregation on collagen under flow, whole blood) of the same sequence?
Answer: The value was “active”.

Question: Which “functional effect of the aptamer” value ([1]; (PEG40KGL2-NOF)(C6L)mGmGmAmGmGAfCG(s)GmCmG(6GLY)mCmGfCfCfUmGmGfCmAfUmAmAmGmCmCmUmCmCiT, dose-dependent inhibition of collagen- and CRP-induced aggregation, washed platelets) does the source give for GGAGGACGGCGCGCCUGGCAUAAGCCUCC [RB569] here?
Answer: Its value is “active”.

Question: How did the “functional effect of the aptamer” value ([1]; (PEG40KGL2-NOF)(C6L)mGmGmAmGmGAfCGGmCmG(6GLY)mCmGfCfCfUmGmGfCmAfUmAmAmGmCmCmUmCmCiT, dose-dependent inhibition of collagen- and CRP-induced aggregation, washed platelets) turn out when GGAGGACGGCGCGCCUGGCAUAAGCCUCC [RB570] was run?
Answer: The value was “active”.

Question: Does GGGAGCACGGCGCGCCUGGCAUAAGCCUCCC [RB470] bind [2, 3]?
Answer: Result: no binding

Question: Does “GGGAGGACGAUGCGGAUCACACCGCGUCAAGCGUAAGCCUCCU [EF-3 T2 mut3]” bind [2, 4]?
Answer: Result: no binding

Question: And the “functional effect of the aptamer” value [1, 5]?
Answer: Its value is “not active”.

Question: Does “GGGAGGACGAUGCGGAUCACACCGCGUCAUGCGUAAGCCUCCU [EF-3 T2 mut7]” bind [2, 4]?
Answer: Result: no binding

Question: Does “GGGAGGACGAUGCGGAUCACACCGCGUCUAGCGUAAGCCUCCU [EF-3 T2 mut6]” bind ([2]; 2'-F C and U, 2'-OH A and G, variant of EF-3 T2 (RB430))?
Answer: Result: binds more weakly

Question: Which “functional effect of the aptamer” value [1, 6] does the source give for “GGGAGGACGAUGCGGAUCACACCGCGUCUUGCGUAAGCCUCCU [EF-3 T2 (RB430)]” here?
Answer: Its value is “active”.

Question: Does “GGGAGGACGAUGCGGAUCACACCGCGUCUUGCGUGGGCCUCCU [EF-3 T2 mut5]” bind [2, 4]?
Answer: Result: no binding

Question: And the “functional effect of the aptamer” value [1, 5]?
Answer: Its value is “not active”.

Question: Does “GGGAGGACGAUGCGGAUCACACCGCGUCUUGCGUUUGCCUCCU [EF-3 T2 mut4]” bind [2, 4]?
Answer: Result: no binding

Question: And the “functional effect of the aptamer” value [1, 5]?
Answer: The value was “not active”.

Question: Which results are given for “GGGAGGACGAUGCGGUGCCAAAACACCCGUCAAGCAUAAGCCUCCU [EF-2 T2 mut3]”?
Answer: binding result [2, 7]: no binding; functional effect of the aptamer [1, 8]: not active

Question: Which “functional effect of the aptamer” value [1, 6] does the source give for “GGGAGGACGAUGCGGUGCCAAAACACCCGUCUUGCAUAAGCCUCCU [EF-2 T2 (RB428)]” here?
Answer: The value was “active”.

Question: Does “GGGAGGACGAUGCGGUGCCAAAACACCCGUCUUGCAUGGGCCUCCU [EF-2 T2 mut5]” bind [2, 7]?
Answer: Result: no binding

Question: What about the “functional effect of the aptamer” value [1, 8] of the same sequence?
Answer: Its value is “not active”.

Question: Does “GGGAGGACGAUGCGGUGCCAAAACACCCGUCUUGCAUUUGCCUCCU [EF-2 T2 mut4]” bind [2, 7]?
Answer: Result: no binding

Question: And the “functional effect of the aptamer” value [1, 8]?
Answer: Its value is “not active”.

Question: Does GGGAGGACGGCGCGCCUGGCAUAAGCCUCCC [RB466] bind ([2]; 2'-F C and U, 2'-OH A and G, hexaethylene glycol spacer between G12 and C13 replacing Loop 2, 3' idT, variant of RB448)?
Answer: Result: binds

Question: Which “functional effect of the aptamer” value ([1]; RB466 with 5' 6-FAM, rated +++, compound assayed functionally, variant of RB466) does the source give for GGGAGGACGGCGCGCCUGGCAUAAGCCUCCC [RB478] here?
Answer: The value was “active”.

Question: What does the source list for GGGAGGACGGCGCGCCUGGCAUAAGCCUCCC [RB490]?
Answer: binding result ([2]; 2'-OMe G2,G3,A4,G5,C11,G12,C13,G14,G19,C26,C27,U28,C29,C30,C31, 2'-F C8,C15,C16,U17,C20,U22, rest 2'-OH, hexaethylene glycol spacer between G12 and C13, 3' idT, buffer F, 37 C, variant of RB466): binds; IC50 ([1]; 2'-OMe G2,G3,A4,G5,C11,G12,C13,G14,G19,C26,C27,U28,C29,C30,C31, 2'-F C8,C15,C16,U17,C20,U22, rest 2'-OH, hexaethylene glycol spacer between G12 and C13, 3' idT, collagen-induced washed platelet aggregation, CRP-XL IC50 79 nM, variant of RB466): 23 nM; IC50 ([1]; rGmGmGmAmGrGrAfCrGrGmCmG(6GLY)mCmGfCfCfUrGmGfCrAfUrArArGmCmCmUmCmCmCiT, CRP-XL-induced aggregation, washed platelets): 79 nM

Question: Does GGGAGGACGGCGCGCCUGGCAUAAGCCUCCC [RB498] bind ([2]; RB490 with 2'-OMe C16, variant of RB490)?
Answer: Result: binds more weakly

Question: Does GGGAGGACGGCGCGCCUGGCAUAAGCCUCCC [RB501] bind ([2]; RB490 with 2'-OMe C20, no binding, variant of RB490)?
Answer: Result: no binding

Question: Does GGGAGGACGGCGCGCCUGGCAUAAGCCUCCC [RB522] bind ([2]; RB520 with 2'-OMe A7, variant of RB520)?
Answer: Result: binds more weakly

Question: Does GGGAGGACGGCGCGCCUGGCAUAAGCCUCCC [RB525] bind ([2]; RB524 with 2'-deoxy A7, 2'-OMe G9, variant of RB524)?
Answer: Result: binds more weakly

Question: Does GGGAGGACGGCGCGCCUUGCAUAAGCCUCCC [RB480] bind ([2]; 2'-F C and U, 2'-OH A and G, hexaethylene glycol spacer in place of Loop 2, 3' idT, variant of RB466)?
Answer: Result: binds

Question: Which “functional effect of the aptamer” value ([1]; 2'-F C and U, 2'-OH A and G, 5' 6-FAM, 3' idT, dead, compound assayed functionally, variant of RB448) does the source give for “GGGAGGACGGCGCUAACGCCAAGCAUAAGCCUCCC [RB469]” here?
Answer: The value was “not active”.

Question: Does “GGGAGGACGGCGCUAACGCCUGGCAUAAGCCUCCC [RB459]” bind ([2]; RB448 with 2'-OMe U21, no binding, variant of RB448)?
Answer: Result: no binding

Question: Does “GGGAGGACGGCGCUAACGCCUGGCAUAAGCCUCCC [RB461]” bind ([2]; RB448 with 2'-OMe U21,G22, no binding, variant of RB448)?
Answer: Result: no binding

Question: Does “GGGAGGACGGCGCUAACGCCUGGCAUAAGCCUCCC [RB463]” bind ([2]; RB448 with 2'-OMe C24,G29, no binding, variant of RB448)?
Answer: Result: no binding

Question: Does GGGAGGAGGGCGCGCCUGGCAUAAGCCUCCC [RB472] bind [2, 3]?
Answer: Result: no binding

Question: Does GGGAGGUCGGCGCGCCUGGCAUAAGCCUCCC [RB471] bind ([2]; 2'-F C and U, 2'-OH A and G, hexaethylene glycol spacer in place of Loop 2, 3' idT, no binding, inactive control in whole blood flow assay, variant of …)?
Answer: Result: no binding

Question: And the “functional effect of the aptamer” value ([1]; rGrGrGrArGrGfUfCrGrGfCrG(6GLY)fCrGfCfCfUrGrGfCrAfUrArArGfCfCfUfCfCfCiT, inactive control, platelet response on collagen under flow comparable to buffer, whole blood)?
Answer: The value was “not active”.
